In patent US20230228760A1, “INTRACELLULAR KINASE ASSOCIATED WITH RESISTANCE AGAINST T-CELL MEDIATED CYTOTOXICITY, AND USES THEREOF” (iOmx Therapeutics AG, priority 2020, published 2023):
Results are given in words; binding and its absence hold for the method and conditions named. Binding seen in cells or lysates may run through a third protein. Some results given as binding are weak or reduced against the parent protein; the word gives no strength.

Amino acid sequences for entries named in this document (tags omitted). A change or cut given only in a name is not applied to a line headed by its entry.
UniProt Q8IU85: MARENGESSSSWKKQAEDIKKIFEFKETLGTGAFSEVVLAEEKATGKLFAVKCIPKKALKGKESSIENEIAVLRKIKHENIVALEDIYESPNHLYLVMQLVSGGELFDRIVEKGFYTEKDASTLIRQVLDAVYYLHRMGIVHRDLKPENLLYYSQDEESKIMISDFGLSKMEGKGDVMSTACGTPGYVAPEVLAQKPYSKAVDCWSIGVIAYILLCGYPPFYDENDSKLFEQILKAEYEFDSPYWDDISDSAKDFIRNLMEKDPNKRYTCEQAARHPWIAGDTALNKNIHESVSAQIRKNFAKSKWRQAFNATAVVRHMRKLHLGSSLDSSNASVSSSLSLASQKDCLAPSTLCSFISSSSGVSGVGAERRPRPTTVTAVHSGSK

Columns and labels:
[1] = molecular target: T1, caspase-3 (human) (UniProt P42574); assay: co-immunoprecipitation from KMM-1 lysates with anti-caspase-3, western blot for CAMK1D
T1 sequence (looked up): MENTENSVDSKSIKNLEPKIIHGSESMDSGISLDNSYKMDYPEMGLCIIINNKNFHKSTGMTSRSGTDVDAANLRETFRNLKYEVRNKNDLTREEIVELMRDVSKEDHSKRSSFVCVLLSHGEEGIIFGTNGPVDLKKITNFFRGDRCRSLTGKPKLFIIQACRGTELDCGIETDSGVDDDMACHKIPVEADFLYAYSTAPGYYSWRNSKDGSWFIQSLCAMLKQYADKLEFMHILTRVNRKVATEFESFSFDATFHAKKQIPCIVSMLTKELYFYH

[2] = molecular target: T2, caspase-7 (human) (UniProt P55210); assay: co-immunoprecipitation from KMM-1 lysates with anti-caspase-7, western blot for CAMK1D
T2 sequence (looked up): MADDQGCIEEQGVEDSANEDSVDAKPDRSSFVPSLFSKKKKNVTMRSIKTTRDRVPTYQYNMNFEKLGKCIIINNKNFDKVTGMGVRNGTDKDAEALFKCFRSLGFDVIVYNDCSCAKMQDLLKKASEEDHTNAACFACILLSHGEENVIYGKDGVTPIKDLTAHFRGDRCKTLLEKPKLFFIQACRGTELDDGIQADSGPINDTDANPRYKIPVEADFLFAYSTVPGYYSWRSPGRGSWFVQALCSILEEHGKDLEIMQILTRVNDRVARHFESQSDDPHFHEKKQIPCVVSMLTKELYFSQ

[3] = molecular target: T1, caspase-3 (human); assay: co-immunoprecipitation, KMM-1 cells stimulated with rHuFasL for 4h or unstimulated
[4] = molecular target: T3, caspase-6 (human) (UniProt P55212); assay: as above
T3 sequence (looked up): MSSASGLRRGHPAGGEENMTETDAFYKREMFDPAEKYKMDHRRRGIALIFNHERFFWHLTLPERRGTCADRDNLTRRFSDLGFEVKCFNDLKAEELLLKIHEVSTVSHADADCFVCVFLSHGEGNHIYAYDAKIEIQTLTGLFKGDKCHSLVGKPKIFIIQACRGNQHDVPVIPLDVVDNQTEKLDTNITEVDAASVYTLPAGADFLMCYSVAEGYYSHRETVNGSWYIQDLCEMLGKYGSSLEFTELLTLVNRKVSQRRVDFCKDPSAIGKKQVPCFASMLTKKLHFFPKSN

[5] = molecular target: T3, caspase-6 (human); assay: co-immunoprecipitation from KMM-1 lysates with anti-caspase-6, western blot for CAMK1D

Measured: binding

Calcium/calmodulin-dependent protein kinase type 1D (CAMK1D) (from UniProt Q8IU85 1-385) (enzyme)
binds: all assays above
